# According to publication PMC12370185:
# This is one part of the list. For some of these results: At the low end of the ranking the order means little.
# Assays:
# Details in all cases: 10 mM Tris-Cl pH 7.5, 50 mM NaCl, 1 mM DTT, 0.25 mg/ml BSA, 2 mM MgCl2, 0.025% Nonidet P-40, 5% glycerol; 28 nM nucleosome library; 10 min on ice then 30 min …; high values mean tight binding; double strand, one strand shown
# KLF4 + histone octamer = test: EMSA with sequencing
# SOX2 + histone octamer = test: EMSA with sequencing
# [1] = tested on: c-MYC + MAX + histone octamer; test: EMSA with sequencing
# OCT4 + histone octamer = test: Pioneer-seq (competitive nucleosome EMSA with sequencing)
Sequence,binding signal (log2 relative supershift) (KLF4 + histone octamer),binding signal (log2 relative supershift) (SOX2 + histone octamer),binding signal (log2 relative supershift) [1],binding signal (log2 relative supershift) (OCT4 + histone octamer)
GATGGACCCTATACGCGGCCCGTTTTCACGCTGTTCATAAAGACATACCCAAGACTGGGCAATGTACAAAAGAAAGAGATTTAATGGACTCACAATTCCACGTGGATGGGGAGGCCTCACAGTCATGGCAGAAGGTGAAAGGCACATCTCACATGGCGGCAGACAAGAGAAGAGTGACAGCCAAGCGAAACGGGTTTCCCCTTATAAAACTGCCAGTCGGATAGTGTTCC,1.58,1.24,0.444,-0.154
GATGGACCCTATACGCGGCAGAGATTTACCAAATAATGTTGCCTGAAGGGAGGTCGTGGTGTGGACACAATTGGCCATCAGCTTTCCCTCCCAGCCTTTTGTCCCAACTCCTTCTCCTCCCTTTGTGTCTCCCTCTGTGTCTGCTTCTTGTATTGCCTCTGCATGACCATGCAGCCTTCTCCTTTCAAAGGTTGCTCTCAGAACATAATCTGCCAGTCGGATAGTGTTCC,1.73,0.675,0.27,-0.673
GATGGACCCTATACGCGGCTGATCAGAGCTGTAAAGGTTTCTAAACAATCAGAGGCCTTTGATATGGTTGCCAACACCCACATTTTCCATTCTGGGAACAATGCCATCAAGGGCCACAGCCTCAGTCCCCCACCTAAGTGAGGAAGTGTCTGCTGGTTGCTGGTAGGAGCAGGTCCTGTGAGGGCAAGGGTCAGAAGGACAGAGGAGTCTTGCCAGTCGGATAGTGTTCC,1.55,0.815,0.691,-0.229
GATGGACCCTATACGCGGCACAGACACACAGATGCATGCACGCGCCCACACACACACACACACACACAAAACATGTGCTCCAGCTCTGCACATTCCCTCCTGCAAATTCTGATTGTCAAGGTGCTGAGGGTGTGGACAGAAGTTGTCTTTGGGTGGGTGAGATTGTAGGTGGGGATTTTTTTATTTCCTTTCTTTGCTTGTCTGTATTTTTGCCAGTCGGATAGTGTTCC,2.5,1.45,0.466,-0.674
